The values that follow come from the supplement of paper PMC5949888.

Most values lie at the floor of the assay. Slopes are relative: functional sequences can read slightly below zero. A value given as a limit tells only on which side of the number the result lay.

This data set concerns Saccharomyces cerevisiae PS128 hsf1 delta, HSF1(1-493) fusion. Kind of data set: growth estimate (transactivation domain function in HSF1 fusion, heat-shock survival) (a.u. (slope of normalised read count over time)); higher = stronger growth at 37°C, i.e. more transactivation activity. Particulars: library: random library.
For the substance SSRGVTK, the growth estimate was < -0.25.
Under ILFADCISWVYVNKWDVYCG stands < -0.25.
On to FSSCLGPPGKIVA, for which the growth estimate is < -0.25.
The value for GNAGLYNKREYHARMLIPAA was < -0.25.
With CTHPNKTVKRELFG, the growth estimate is < -0.25.
The value for YRFPVGL was < -0.25; that for DIGANTTTEEICTG was < -0.25.
The value for WCPGQPYSCSGSVRLCLSLA was < -0.25.
Turning to NTRSCLTGGSGENCGNSPSA, the growth estimate is < -0.25.
The value for CCELISPMLVFAPGGCEGKT was < -0.25; that for VTETRRVPRVRGCSICGLRN was < -0.25.
Regarding GGHPEGS, the growth estimate was < -0.25.
Under RSDLGPEHPGG stands < -0.25.
On to QAVQIFGTTS, for which the growth estimate was < -0.25.
Under TGAN stands < -0.25; under TARVCR, < -0.25; under GLAQFNRTRGISGIFSHFVI, < -0.25.
Under TGLGVLRTVNAPRKA stands < -0.25; under RARVILVGYRHRLMLGRQPS, < -0.25; under SCRWKISGLSDRGATPCLIM, < -0.25.
The value for WWRVLL was < -0.25; that for WEKKCRV was < -0.25; that for QLRVLVCEERRNIPACDNIG was < -0.25.
TRVFGSSPLGLFRFDAEALA: the growth estimate was < -0.25.
Under GIMRLQPIKYAGYIT stands < -0.25; under IRWSCALDCAFPGRSTQVSN, -0.145; under SSRCSAGEMPLVVGAARSGV, < -0.25.
The value for LYHVDMVFPA was < -0.25; that for LFVTAF was < -0.25.
The value for RGARAKILT was < -0.25; that for VKVPASHREISRRTSLRSRV was < -0.25.
Turning to VFIVSGTAAEYSQSSLI, the growth estimate is < -0.25.
As to DFIGVVPGGSISTHCYPPIL, the growth estimate is < -0.25.
Under FTGGTMRGRFSV stands < -0.25.
Under GPRCGLGQIREIE stands < -0.25; under SACIYCWLDGRETPGLQPAK, 0.564; under VSTGDEIISESMNQGRQLWV, < -0.25.
Under GKCREG stands < -0.25; under RPTYYE, < -0.25.
On to IGLGPNSRFRCSAAEAALTC, for which the growth estimate is < -0.25.
Under NGELATK stands < -0.25; under GSTESDRCKLQVSRATGVQH, < -0.25.
The value for NECRPR was < -0.25; that for GTHYTNAARTGQRAVRSWGR was < -0.25; that for SSPGLTLAKLVHRGCCLLTC was < -0.25.
Regarding RLG, the growth estimate was < -0.25.
Under GSVMPLNPAFLAPPLQRQL stands < -0.25.
The value for RAQACMLITQVFVAYVRPTS was < -0.25; that for IDGRKSTPAVQILCGVEHTS was < -0.25.
On to YVSFRFEEVLPAAVDELSGA, for which the growth estimate is < -0.25.
Under NVMGEQ stands < -0.25; under QSLEWF, < -0.25; under GSRSWRYPFPFSGTRHEWYT, < -0.25.
The value for RYENGCRLHVTRACHLQPSS was < -0.25; that for PRVDTMPRSSDKVMGQAGSM was < -0.25.
NNCGSILIHVGHSHAAFHRV: the growth estimate was < -0.25.
Under SPCRIWSREENAIGLLGGRS stands < -0.25.
TGLRAMKGGWGQ: the growth estimate is -0.241.
Under SGGLKAVNVDGGVHNCPAYP stands < -0.25.
Under GHQIRGRGYCS stands < -0.25.
Under MMRGAA stands < -0.25; under GMCPRIGFR, < -0.25; under HLLFHEPTGKPQQHARDCML, < -0.25.
As for ITVSTVS, the growth estimate is < -0.25.
Under IDAVLRRPVIGVDEVSSGRY stands < -0.25; under TENSHLWGDSLWGH, 0.365.
The value for ADKTYGNAGLRRLGSVAKL was < -0.25; that for TSTP was < -0.25.
Under LNTF stands < -0.25.
Regarding GSIRFVGHSGIQHAKQMNGH, the growth estimate was < -0.25.
Under AIGK stands < -0.25; under VVVDALG, < -0.25.
Under PIVPTGYSI stands < -0.25; under TRACSGYC, < -0.25.
Under LSSSCFSITNVLYKHNHFLC stands < -0.25; under FRGGVMSVAP, < -0.25.
Consider RNPNGERLTRRW, for which the growth estimate was < -0.25.
The value for GRAGVYREPHGQGTPHPQSR was < -0.25.
Under WYSIGCSSSRSSGFTKIMLA stands -0.246; under CTLF, < -0.25.
Under SNSSPLCLTRSKKRERRHVG stands < -0.25; under RQAG, < -0.25.
Consider WVSEILGITEQAVAPCP, for which the growth estimate is < -0.25.
On to KSCLLCYVR, for which the growth estimate was < -0.25.
Under VSSVKLLGLIYRYLLDSPRK stands -0.25.
The value for ELIVWGLGKGRSCGNTTKTR was < -0.25.
For the substance SILEQIVRIRSGGKMKREAP, the growth estimate was < -0.25.
The value for SGTGAYLPEIYYKFCILFGP was < -0.25; that for ISKI was < -0.25; that for WLKAWSC was -0.239.
The value for KLDISVLVPPSYRSRCVRKS was < -0.25; that for LPKRGWW was < -0.25.
The value for LCCLRR was < -0.25; that for LRRPMASSVWPMIANGIGL was < -0.25.
Turning to SSGCNAVKGVYLMVKLRRTG, the growth estimate was < -0.25.
The value for VRLEARYVVPLRLV was < -0.25; that for SAFRLIFPFRRKRMYRGVIT was -0.246; that for LRTELSAGASMGLVGWTESC was < -0.25.
The value for VLPRGHNTRLKGRIKRLAPV was < -0.25; that for NTYGVR was < -0.25; that for DFEPLVIQGVAGANIYAIWR was < -0.25.
In the case of GIMHALTSGGHMISKSE, the growth estimate was < -0.25.
The value for RATSC was < -0.25; that for IGRWG was < -0.25; that for CEGGGVILVACAPCSEFAPL was < -0.25.
The value for IELAAIATCSRRQSEG was < -0.25.
The value for VIVGVNCGVNLARQYRDVLS was < -0.25.
GPGRP: the growth estimate is < -0.25.
The value for EWGDEGSKPQPTACPRLQFS was < -0.25; that for SEDRESQRNLRHIGHFKELN was < -0.25; that for CGK was < -0.25.
Regarding RRLITQ, the growth estimate was < -0.25.
As for HSRVHPFRCAGSQQGR, the growth estimate was < -0.25.
Under PRDILSRRKAASPHEGVISN stands < -0.25.
The value for GGYLPRSGQQIKPCEGIIFA was < -0.25; that for RAEETRDS was < -0.25.
